Reference: the supplement of paper PMC8728848
Some of the results follow.

Columns and labels:
Test in all cases: glycan array binding signal (z-score within array); higher = stronger binding
Conditions in all cases: glycan notation: IUPAC condensed, linker removed
Fuc(a1-2)Gal = molecular target: Fuc(a1-2)Gal
How it was run: (§1)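 The Consortium for Functional Glycomics database supplied 3228 glycan arrays, of which those lacking an available protein sequence were dropped. The binding signal, a within-array Z-score, was averaged across arrays of the same protein sequence and across linkers. Negative scores can be read as non-binding.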

Fuc(a1-2)Gal(b1-3)GalNAc = molecular target: Fuc(a1-2)Gal(b1-3)GalNAc
How it was run: as §1

[1] = molecular target: Fuc(a1-2)Gal(b1-3)GalNAc(a1-3)[Fuc(a1-2)]Gal(b1-4)Glc
How it was run: as §1

[2] = molecular target: Fuc(a1-2)Gal(b1-3)GalNAc(a1-3)[Fuc(a1-2)]Gal(b1-4)GlcNAc
How it was run: as §1

[3] = molecular target: Fuc(a1-2)Gal(b1-3)GalNAc(b1-3)Gal
How it was run: as §1

[4] = molecular target: Fuc(a1-2)Gal(b1-3)GalNAc(b1-3)Gal(a1-4)Gal(b1-4)Glc
How it was run: as §1

[5] = molecular target: Fuc(a1-2)Gal(b1-3)GalNAc(b1-4)[Neu5Ac(a2-3)]Gal(b1-4)Glc
How it was run: as §1

Fuc(a1-2)Gal(b1-3)GlcNAc = molecular target: Fuc(a1-2)Gal(b1-3)GlcNAc
How it was run: as §1

[6] = molecular target: Fuc(a1-2)Gal(b1-3)GlcNAc(b1-2)Man(a1-3)[Fuc(a1-2)Gal(b1-3)GlcNAc(b1-2)Man(a1-6)]Man(b1-4)GlcNAc(b1-4)GlcNAc
How it was run: as §1

[7] = molecular target: Fuc(a1-2)Gal(b1-3)GlcNAc(b1-2)Man(a1-3)[Fuc(a1-2)Gal(b1-3)GlcNAc(b1-2)Man(a1-6)]Man(b1-4)GlcNAc(b1-4)[Fuc(a1-6)]GlcNAc
How it was run: as §1

[8] = molecular target: Fuc(a1-2)Gal(b1-3)GlcNAc(b1-3)Gal(b1-4)Glc
How it was run: as §1

[9] = molecular target: Fuc(a1-2)Gal(b1-3)GlcNAc(b1-3)GalNAc
How it was run: as §1

[10] = molecular target: Fuc(a1-2)Gal(b1-3)GlcNAc(b1-3)[Fuc(a1-2)Gal(b1-3)GlcNAc(b1-6)]GalNAc
How it was run: as §1

[11] = molecular target: Fuc(a1-2)Gal(b1-3)GlcNAc(b1-3)[Gal(b1-4)GlcNAc(b1-6)]Gal(b1-4)Glc
How it was run: as §1

[12] = molecular target: Fuc(a1-2)Gal(b1-3)GlcNAc(b1-3)[Neu5Ac(a2-6)Gal(b1-4)GlcNAc(b1-6)]Gal(b1-4)Glc
How it was run: as §1

[13] = molecular target: Fuc(a1-2)Gal(b1-3)GlcNAc6S
How it was run: as §1

[14] = molecular target: Fuc(a1-2)Gal(b1-3)[Fuc(a1-4)]GlcNAc
How it was run: as §1

[15] = molecular target: Fuc(a1-2)Gal(b1-3)[Fuc(a1-4)]GlcNAc(b1-2)Man(a1-3)[Fuc(a1-2)Gal(b1-3)[Fuc(a1-4)]GlcNAc(b1-2)Man(a1-3)]Man(b1-4)GlcNAc(b1-4)GlcNAc
How it was run: as §1

[16] = molecular target: Fuc(a1-2)Gal(b1-3)[Fuc(a1-4)]GlcNAc(b1-2)Man(a1-3)[Fuc(a1-2)Gal(b1-3)[Fuc(a1-4)]GlcNAc(b1-2)Man(a1-6)]Man(b1-4)GlcNAc(b1-4)[Fuc(a1-6)]GlcNAc(b1-4)[Fuc(a1-6)]GlcNAc
How it was run: as §1

[17] = molecular target: Fuc(a1-2)Gal(b1-3)[Fuc(a1-4)]GlcNAc(b1-3)[Fuc(a1-3)[Gal(b1-4)]GlcNAc(b1-6)]Gal(b1-4)Glc
How it was run: as §1

[18] = molecular target: Fuc(a1-2)Gal(b1-3)[Fuc(a1-4)]GlcNAc(b1-3)[Gal(b1-4)GlcNAc(b1-6)]Gal(b1-4)Glc
How it was run: as §1

Fuc(a1-2)Gal(b1-4)Glc = molecular target: Fuc(a1-2)Gal(b1-4)Glc
How it was run: as §1

Fuc(a1-2)Gal(b1-4)Glc6S = molecular target: Fuc(a1-2)Gal(b1-4)Glc6S
How it was run: as §1

Fuc(a1-2)Gal(b1-4)GlcNAc = molecular target: Fuc(a1-2)Gal(b1-4)GlcNAc
How it was run: as §1

[19] = molecular target: Fuc(a1-2)Gal(b1-4)GlcNAc(b1-2)Man
How it was run: as §1

[20] = molecular target: Fuc(a1-2)Gal(b1-4)GlcNAc(b1-2)Man(a1-3)[Fuc(a1-2)Gal(b1-4)GlcNAc(b1-2)Man(a1-6)]Man(b1-4)GlcNAc(b1-4)GlcNAc
How it was run: as §1

[21] = molecular target: Fuc(a1-2)Gal(b1-4)GlcNAc(b1-2)Man(a1-3)[Fuc(a1-2)Gal(b1-4)GlcNAc(b1-2)Man(a1-6)]Man(b1-4)GlcNAc(b1-4)[Fuc(a1-6)]GlcNAc
How it was run: as §1

[22] = molecular target: Fuc(a1-2)Gal(b1-4)GlcNAc(b1-2)[Fuc(a1-2)Gal(b1-4)GlcNAc(b1-4)]Man(a1-3)[Fuc(a1-2)Gal(b1-4)GlcNAc(b1-2)Man(a1-6)]Man(b1-4)GlcNAc(b1-4)GlcNAc
How it was run: as §1

[23] = molecular target: Fuc(a1-2)Gal(b1-4)GlcNAc(b1-3)Gal(b1-4)GlcNAc
How it was run: as §1

[24] = molecular target: Fuc(a1-2)Gal(b1-4)GlcNAc(b1-3)Gal(b1-4)GlcNAc(b1-2)Man(a1-3)[Fuc(a1-2)Gal(b1-4)GlcNAc(b1-3)Gal(b1-4)GlcNAc(b1-2)Man(a1-6)]Man(b1-4)GlcNAc(b1-4)GlcNAc
How it was run: as §1

B1: Vd7LysM (Verticillium dahliae) (protein)
chain: RRGPEPKYPPAAGTSSYCSYWVDYEGDKSCSRVLEDNVVVLKDFARWNPTVGADCSGIKAGNSYCVEAFGEPEPIEVTTTTRAATTTTQPTATTTTFANGIATPQPTQSGMVTNCNKFHWIAEGVSCSQVISFQKITLADFVKWNPSVKSDCSGMWAGVNVCVGVVGSSTDTAKPTTTAPSNGVVTPQPTQPSMVTNCNKFHWIAKGVTCQQVISYQKISLADFVKWNPSVLSDCSGMWAEVQVCVGVIGSTPTTLATTTTTAGNGVSTPLPTQPGMVTNCAKFHWVAKGVTCNQIYSFQKITLEQFVSYNPTVKSDCSGMQAEVQVCVGLIAGTTPTTTRPPTTTAPGNGVSTPQPTQPGMVTNCAKFHWVAKGVTCNQIYSFQKITLEQFVSFNPTVKSDCTGMQAEVNVCVGLIGGNPTPTQTGNGIATPTPIQPGMVSNCKKFHWIAQGVTCQQVISFQKITLADFVKWNTGVGSDCRTMWAETNVCVGV
glycan array binding signal (z-score) (Fuc(a1-2)Gal): -0.054 | glycan array binding signal (z-score) (Fuc(a1-2)Gal(b1-3)GalNAc): 0.44 | glycan array binding signal (z-score) [1]: 0.018 | glycan array binding signal (z-score) [2]: -0.691 | glycan array binding signal (z-score) [3]: -0.298 | glycan array binding signal (z-score) [4]: -0.625 | glycan array binding signal (z-score) [5]: 0.56 | glycan array binding signal (z-score) (Fuc(a1-2)Gal(b1-3)GlcNAc): -0.2 | glycan array binding signal (z-score) [6]: 0.203 | glycan array binding signal (z-score) [7]: -0.75 | glycan array binding signal (z-score) [8]: -0.621 | glycan array binding signal (z-score) [9]: -0.215 | glycan array binding signal (z-score) [10]: -0.01 | glycan array binding signal (z-score) [11]: -0.772 | glycan array binding signal (z-score) [12]: -1.86 | glycan array binding signal (z-score) [13]: 0.367 | glycan array binding signal (z-score) [14]: -0.646 | glycan array binding signal (z-score) [15]: 0.384 | glycan array binding signal (z-score) [16]: -0.925 | glycan array binding signal (z-score) [17]: 1.63 | glycan array binding signal (z-score) [18]: -1.91 | glycan array binding signal (z-score) (Fuc(a1-2)Gal(b1-4)Glc): -0.328 | glycan array binding signal (z-score) (Fuc(a1-2)Gal(b1-4)Glc6S): 2.67 | glycan array binding signal (z-score) (Fuc(a1-2)Gal(b1-4)GlcNAc): -0.12 | glycan array binding signal (z-score) [19]: 0.241 | glycan array binding signal (z-score) [20]: 2.13 | glycan array binding signal (z-score) [21]: -0.923 | glycan array binding signal (z-score) [22]: -0.492 | glycan array binding signal (z-score) [23]: -1.33 | glycan array binding signal (z-score) [24]: 0.254
